# Several values for one entry are separate records, joined by “and”; a condition that tells them apart may be missing. Equal entries are not always repeated. The list shows a part of the results. For some of these results: Construct or isoform of the protein are uncertain.
# Protein sequences, listed by entry. Tags and fused reporters are not part of them.
# UniProt Q92963, whole entry: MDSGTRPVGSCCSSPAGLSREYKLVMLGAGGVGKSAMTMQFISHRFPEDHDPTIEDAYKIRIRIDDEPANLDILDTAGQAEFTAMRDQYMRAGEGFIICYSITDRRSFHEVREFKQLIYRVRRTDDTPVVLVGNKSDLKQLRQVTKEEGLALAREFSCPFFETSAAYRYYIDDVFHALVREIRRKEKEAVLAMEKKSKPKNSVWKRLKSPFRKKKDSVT
# How the values were obtained:
# Assay in all cases: protein microarray (ProtoArray v5.0), streptavidin-Alexa Fluor 647
# Settings in all cases: 3'-biotin; 20 mM Tris (pH 7.5), 5 mM MgCl2, 100 mM KCl, 0.1% Tween-20, A/T-rich and random oligonucleotide blockers; temperature not stated; high values mean tight binding
# [1] = target: RIT1 (UniProt Q92963)
# [2] = test system: RLBP1 (human)
# [3] = test system: RLBP1L1 (human)
# [4] = test system: RMI1 (human)
# [5] = test system: RNA polymerase II-associated protein 3 (human)
# [6] = test system: RNA-binding protein with multiple splicing (human)
# [7] = test system: RNASE11 (human)
# [8] = test system: RNASE8 (human)
# [9] = test system: RNF11 (human)
# [10] = test system: RNF111 (human)
sequence,measurement,setting,value
GGGAGGCTGAGGCAGG [G4-1 biotinylated (PQS2)],binding signal,[1],6 z-score
same,binding signal,[2],-0.343 z-score
same,binding signal,[3],-0.355 z-score
same,binding signal,[4],-0.277 z-score
same,binding signal,[5],4.7 z-score
same,binding signal,[6],-0.317 z-score and -0.347 z-score
same,binding signal,[7],-0.342 z-score
same,binding signal,[8],-0.353 z-score
same,binding signal,[9],-0.35 z-score
same,binding signal,[10],-0.322 z-score

# Rewritten bar-delimited: entries from further up.
sequence | measurement | setting | value
GGGAGGCTGAGGCAGG [G4-1 biotinylated (PQS2)] | binding signal | [4] | -0.277 z-score
same | binding signal | [10] | -0.322 z-score
